Results reported in PubChem BioAssay AID1688 (National Center for Advancing Translational Sciences (NCATS), 2009).
The whole screen tested about 220,000 compounds, of which about 2,400 (1.1%) were called active. The inconclusive results got no clear call from the source; some entries with a clear call stand among them for comparison. Calls follow the shape of the dose curve; as a rule, active = well fitted inhibition curve with a large enough effect; inconclusive = small, poorly fitted or top-dose-only effect, or effect the other way; inactive = no such curve, though single readings can be large or run the other way. A potency beside an inconclusive call is a rough fit, not a confirmed value.
% is scaled to controls: 0 for no effect and ±100 for the full control effect; potency is read from the fitted curve at half-maximal effect.

Test: qHTS Multiplex Assay to Identify Dual Action Probes in a Cell Model of Huntington: Aggregate Formation (GFP); also: nearly all actives have a fitted effect of over 60% in size
Settings: PC12 HttQ103-GFP aggregates, Acumen cytometry, 40 h; activity change, negative = inhibition: at 46.1 µM (top of the series) unless noted
Summary of the method: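 Inducible Q103 Huntingtin exon 1–GFP PC12 line, 1500 cells/well in phenol red free DMEM with 5% equine and 5% calf serum. Tebufenozide 100 nM induced expression; compounds titrated; aggregates quantified by cytometry.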
In the case of CC1(OC(=O)CCc2ccccc2)C(=O)C=C2C=C(c3ccc(C#N)cc3)N(CCN3CCOCC3)C=C2C1=O (configuration not stated), the activity change, negative = inhibition is reported as inactive: -13.2% [at 9.22 µM]. For CC(C)=NNc1nc2c(c(=O)n(C)c(=O)n2C)n1C, the activity change, negative = inhibition was inactive: 13.6% [at 9.22 µM]. In the case of O=C(Nc1nnc(C(F)(F)F)s1)c1ccc(Br)s1, the Potency is reported as active: 5.62 µM. With CCc1nnc(NC(=O)c2ccc(S(=O)(=O)N(CC(C)C)CC(C)C)cc2)o1 the Potency was “inactive”. With O=C(N1CCOCC1)N1CCN(c2nc(-c3ccc(F)cc3)cs2)CC1 the Potency was inconclusive: 0.562 µM [activator, full curve, poor fit]. In the case of COc1cccc(CN2CCN(C3CCOCC3)CC2CCO)c1 (configuration not stated), the activity change, negative = inhibition is reported as inactive: -4.01% [at 9.22 µM]. For Cc1cc(N)c2ccccc2[n+]1CCCCCCCCCC[n+]1c(C)cc(N)c2ccccc21, the Potency was inconclusive: 7.94 µM [inhibitor, partial curve, poor fit]. In the case of COC(=O)N/N=C/c1ccc(-c2cc(Cl)cc(Cl)c2)o1, the Potency is reported as “inactive”. In the case of CCOC(=O)N1CCC(NC(=O)c2cc3c(-c4ccc(OC)c(OC)c4)nn(C)c3s2)CC1, the Potency is reported as “inactive”. With O=C(NC(=S)N1CCN(c2ccccn2)CC1)c1ccco1 the activity change, negative = inhibition was inactive: -1.94% [at 9.22 µM]. In the case of O=c1c2ccccc2c(-c2ccccc2)nn1-c1ccc(Cl)c(Cl)c1, the Potency is reported as inconclusive: 35.5 µM [inhibitor, single point]. For COc1ccc(OC)c(Nc2cc(-c3ccccc3)nc(N)n2)c1, the Potency was active: 1.26 µM. In the case of c1ccc(CSc2nnc(-c3sccc3-n3cccc3)o2)cc1, the Potency is reported as “inactive”. With S=C(NCCN1CCOCC1)Nc1ccc(-c2nc3ccccc3[nH]2)cc1 the Potency was inconclusive: 14.1 µM [inhibitor, partial curve]. For CC(C)N(Cc1nccn1C)C(=O)c1cc(COc2ccc3ncccc3c2)on1, the Potency was active: 20 µM. With Cc1ccc(S(=O)(=O)N2CCOCC2)cc1NC(=O)CSc1nnc2cc(C)c3ccccc3n12 the Potency was inconclusive: 11.2 µM [activator, partial curve]. For COc1ccc(C(=O)/C(Br)=C/C(=O)O)cc1, the Potency was “inactive”. For Cn1c(Sc2ccccc2Cl)c(C=O)c2ccccc21, the Potency was “inactive”. With Cc1cccc(Oc2cc(NC(=O)c3ccccc3)cc([N+](=O)[O-])c2)c1 the Potency was inconclusive: 4.47 µM [inhibitor, full curve]. In the case of O=C(CNc1cccc2ccccc12)N/N=C/c1ccc[nH]1, the activity change, negative = inhibition is reported as inactive: -22% [at 9.22 µM]. In the case of CC(=O)c1ccc(N2CCN(CC(=O)Nc3ccc(N4CCOCC4)cc3)CC2)cc1, the Potency is reported as “inactive”. With COC(=O)c1ccccc1NC(=O)c1ccc(COc2cc(C)cc(C)c2)o1 the Potency was inconclusive: 20 µM [inhibitor, single point]. In the case of COc1cc(/C=C2\C(=O)NN(c3ccc(C)cc3)C2=O)cc([N+](=O)[O-])c1O, the Potency is reported as inconclusive: 2.24 µM [activator, full curve, poor fit]. For Cc1ccc(OCCN2CCN(c3ncnc4sc(C)c(C)c34)CC2)cc1, the Potency was active: 2.51 µM. In the case of CC(NS(=O)(=O)c1cccc(Cl)c1)C(=O)N(C)C1CCN(C)CC1 (configuration not stated), the Potency is reported as inconclusive: 11.2 µM [activator, partial curve]. For O=c1[nH]c(SCc2ccc([N+](=O)[O-])cc2)nc2[nH]ncc12, the Potency was inconclusive: 10 µM [activator, partial curve]. For COc1ccccc1N1CCN(C(=O)c2cc(-c3ccc(C)cc3)on2)CC1, the Potency was inconclusive: 35.5 µM [inhibitor, single point]. With O=S(=O)(c1ccc(N2CCCCCC2)nc1)N1CCCC1 the Potency was “inactive”. With O=C(O)c1ccc(NC2=C(Cl)C(=O)c3ccccc3C2=O)cc1 the Potency was inconclusive: 4.47 µM [inhibitor, single point]. With O=C(Nc1cccc(S(=O)(=O)Nc2ccc(Cl)cc2)c1)c1cc2c(s1)CCCC2 the Potency was inconclusive: 35.5 µM [inhibitor, single point]. For CCC1(C)Cc2c(sc3nc(SCC(=O)O)[nH]c(=O)c23)CO1 (configuration not stated), the Potency was “inactive”. In the case of O=C(Nc1cccnc1)C1CCC(CNS(=O)(=O)c2cccc3nsnc23)CC1 (configuration not stated), the activity change, negative = inhibition is reported as inactive: -11.4% [at 9.22 µM]. For Cc1ccc(NC(=S)NCCc2ccc(S(N)(=O)=O)cc2)cc1C, the Potency was inconclusive: 5.62 µM [inhibitor, single point]. In the case of CCOC(=O)c1nc(S(C)(=O)=O)ncc1Cl, the Potency is reported as inconclusive: 22.4 µM [inhibitor, single point]. For CCC(C(=O)N1CCN(c2ccccc2OC)CC1)c1ccccc1 (configuration not stated), the Potency was “inactive”. For Cc1ccc2c3c(cccc13)-c1ccccc1C2=O, the Potency was “inactive”. For Cc1cc(Sc2ncnc(N)c2[N+](=O)[O-])ncn1, the Potency was active: 4.47 µM. For NC(=O)[C@H]1CC2(CC(c3cccc(NC(=O)COc4ccc(Cl)cc4)c3)=NO2)CN1C(=O)C(c1ccccc1)c1ccccc1 (some centres not stated), the Potency was inconclusive: 3.55 µM [activator, single point]. With O=C(C[n+]1ccccc1)Nc1ccccc1Br the activity change, negative = inhibition was inactive: -13.5% [at 9.22 µM]. In the case of CN(C)c1ccc(C=NCC2COc3ccccc3O2)cc1 (configuration not stated), the activity change, negative = inhibition is reported as inactive: -9.14% [at 9.22 µM]. With COc1ccc(C)cc1NC1=C(Cl)C(=O)N(C2CCCCC2)C1=O the Potency was inconclusive: 35.5 µM [inhibitor, single point]. With Cc1ccc(C(=O)NCC(=O)OCC(=O)c2cc(C)n(Cc3ccco3)c2C)cc1 the Potency was inconclusive: 3.16 µM [inhibitor, single point]. With CCN(C(=O)CSc1nnc(-c2ccc(F)cc2)c2ccccc12)C1CCS(=O)(=O)C1 (configuration not stated) the Potency was inconclusive: 11.2 µM [activator, partial curve]. For COC(=O)N/N=C/c1ccc([N+](=O)[O-])s1, the Potency was inconclusive: 35.5 µM [inhibitor, single point]. In the case of COc1cc2ncnc(NCc3ccccc3C)c2cc1OC, the Potency is reported as inconclusive: 35.5 µM [inhibitor, single point]. In the case of COc1cc(/C=C2/CCC/C(=C\c3cc(O)c(OC)c(Cl)c3)C2=O)cc(Cl)c1O, the Potency is reported as inconclusive: 35.5 µM [inhibitor, single point]. For O=c1[nH]c(NCCCO)nc2c1C1(CCCC1)Cc1ccccc1-2, the Potency was inconclusive: 6.31 µM [inhibitor, partial curve]. In the case of Oc1c(CN2CCN(c3ccc(F)cc3)CC2)cc(Cl)c2cccnc12, the Potency is reported as inconclusive: 1.12 µM [inhibitor, full curve]. In the case of CCC1CCCCN1S(=O)(=O)c1ccc(NC(=O)c2cccs2)cc1 (configuration not stated), the Potency is reported as “inactive”. In the case of O=C(Nc1ccc2c(c1)N(Cc1ccccc1)C(=O)c1ccccc1S2)NC1CC1, the Potency is reported as inconclusive: 35.5 µM [inhibitor, single point]. With COc1ccc(-c2c3c(cc(C)[n+]2[O-])oc2ccc(OC)cc23)cc1 the Potency was inconclusive: 35.5 µM [inhibitor, single point]. For CCCSc1nsc(NC(=O)C(c2ccccc2)c2ccccc2)n1, the Potency was active: 5.01 µM. With COCCCNC(=O)CSc1ccc(Cl)cc1 the Potency was inconclusive: 0.0891 µM [activator, partial curve, poor fit]. In the case of Nc1ccc(O)cc1C(=O)OCC(=O)C12CC3CC(CC(C3)C1)C2, the Potency is reported as inconclusive: 17.8 µM [activator, single point]. In the case of Cc1ccc(C(=O)N2CCSCC2)cc1, the activity change, negative = inhibition is reported as inactive: 13.5% [at 9.22 µM]. With CCCOc1ccc(-c2nc(C#N)c(N3CCN(CC)CC3)o2)cc1 the Potency was “inactive”. In the case of O=C(Nc1nccs1)C1(S(=O)(=O)c2ccc(Cl)cc2)CC1, the Potency is reported as inconclusive: 35.5 µM [inhibitor, single point]. In the case of Cc1ccc(-c2csc3ncnc(-n4cnc5ccccc54)c23)cc1, the Potency is reported as inconclusive: 22.4 µM [inhibitor, single point]. With c1ccc(CC2CCN(c3nc4ccccc4n4cnnc34)CC2)cc1 the Potency was inconclusive: 14.1 µM [inhibitor, single point]. With CCN1/C(=C/C(C)=C/c2sc3ccccc3[n+]2CC)Sc2ccccc21 the Potency was active: 1.12 µM. For CC1CCCC(C)N1C(=O)CSc1nnc(-c2c[nH]c3ccccc23)o1 (configuration not stated), the Potency was “inactive”. With Cc1ccc(CNc2ccc3c(c2)OCO3)cc1 the Potency was inconclusive: 35.5 µM [inhibitor, single point]. With O=c1[nH]c(=O)n(-c2ccc(F)cc2)c2c1C(C(F)(F)F)(C(F)(F)F)N=C(c1ccc(F)cc1)N2 the Potency was active: 3.16 µM. With Cc1ccc2nc(/C(C#N)=C/c3ccc(-c4cccc([N+](=O)[O-])c4)o3)[nH]c2c1 the Potency was inconclusive: 3.98 µM [inhibitor, partial curve]. For CC(C)(CC(=O)N1CCN(c2ccc(Cl)cc2)CC1)CC1=NS(=O)(=O)c2ccccc2N1, the Potency was active: 11.2 µM. In the case of C=CCn1c(C)cc(-c2csc(NCC)n2)c1C, the Potency is reported as inconclusive: 35.5 µM [inhibitor, single point]. In the case of Cc1cc(C2=NNC(=NC3CC3)SC2)c(C)n1-c1ccccc1, the Potency is reported as “inactive”. In the case of Cc1sc(NC(=O)/C=C/c2ccco2)c(C(=O)O)c1C, the activity change, negative = inhibition is reported as inactive: 1.43% [at 9.22 µM]. With CCCC1(c2ccccc2)NC(=O)N(CC(=O)Nc2sc(-c3ccccc3)cc2C(=O)OCC)C1=O (configuration not stated) the Potency was inconclusive: 0.562 µM [inhibitor, full curve]. With COC(=O)c1c(N)sc2c1CCN(c1ncc(C(F)(F)F)cc1Cl)C2 the Potency was inconclusive: 12.6 µM [inhibitor, single point]. In the case of Brc1ccc2c(c1)OCCOCCOc1cc(Br)ccc1OCCOCCOCCO2, the Potency is reported as active: 25.1 µM. In the case of Cc1ccc(C)c(N2CCN(c3ncnc4c3cnn4-c3ccccc3)CC2)c1, the Potency is reported as inconclusive: 35.5 µM [inhibitor, single point].
